Laboratory results reported in patent publication US11234943B2, “Use of reservatrol for the treatment of non-alcoholic fatty liver disease (NAFLD)” (priority 2016, dated 2022).

Test: Body weight and BMI of study participants
Assay type: in vivo, human
Settings: all 44 participants (50 mg and 200 mg groups), mean, time 2 (6 months)
Protocol: Then, the patients were divided into two groups (randomly assigned) according to the treatment given to them. 22 patients were given treatment 50 mg RSV micronized formulation, Evelor capsules once daily, (Group A) and 22 patients were given treatment 200 mg RSV micronized formulation, Evelor capsules, once daily, (Group B). The observation period lasted for 6 months. There was a clinical examination, blood tests and an abdominal ultrasound at the beginning of the study (time 1) and in 6 months (time 2). All patients were on low fat diet and they were being followed up by nutritionist.

In the case of Oc1ccc(/C=C/c2cc(O)cc(O)c2)cc1 [Resveratrol, resveratrol], the “BMI At time 2” value is reported as 27.93 kg/cm^2 and the “Weight At time 2” value is reported as 82.33 kg.
